Results are given in words; binding and its absence hold for the method and conditions named. Some results given as binding are weak or reduced against the parent protein; the word gives no strength.

Chains of the proteins cited; added tags and fusions are not shown.
UniProt P53552: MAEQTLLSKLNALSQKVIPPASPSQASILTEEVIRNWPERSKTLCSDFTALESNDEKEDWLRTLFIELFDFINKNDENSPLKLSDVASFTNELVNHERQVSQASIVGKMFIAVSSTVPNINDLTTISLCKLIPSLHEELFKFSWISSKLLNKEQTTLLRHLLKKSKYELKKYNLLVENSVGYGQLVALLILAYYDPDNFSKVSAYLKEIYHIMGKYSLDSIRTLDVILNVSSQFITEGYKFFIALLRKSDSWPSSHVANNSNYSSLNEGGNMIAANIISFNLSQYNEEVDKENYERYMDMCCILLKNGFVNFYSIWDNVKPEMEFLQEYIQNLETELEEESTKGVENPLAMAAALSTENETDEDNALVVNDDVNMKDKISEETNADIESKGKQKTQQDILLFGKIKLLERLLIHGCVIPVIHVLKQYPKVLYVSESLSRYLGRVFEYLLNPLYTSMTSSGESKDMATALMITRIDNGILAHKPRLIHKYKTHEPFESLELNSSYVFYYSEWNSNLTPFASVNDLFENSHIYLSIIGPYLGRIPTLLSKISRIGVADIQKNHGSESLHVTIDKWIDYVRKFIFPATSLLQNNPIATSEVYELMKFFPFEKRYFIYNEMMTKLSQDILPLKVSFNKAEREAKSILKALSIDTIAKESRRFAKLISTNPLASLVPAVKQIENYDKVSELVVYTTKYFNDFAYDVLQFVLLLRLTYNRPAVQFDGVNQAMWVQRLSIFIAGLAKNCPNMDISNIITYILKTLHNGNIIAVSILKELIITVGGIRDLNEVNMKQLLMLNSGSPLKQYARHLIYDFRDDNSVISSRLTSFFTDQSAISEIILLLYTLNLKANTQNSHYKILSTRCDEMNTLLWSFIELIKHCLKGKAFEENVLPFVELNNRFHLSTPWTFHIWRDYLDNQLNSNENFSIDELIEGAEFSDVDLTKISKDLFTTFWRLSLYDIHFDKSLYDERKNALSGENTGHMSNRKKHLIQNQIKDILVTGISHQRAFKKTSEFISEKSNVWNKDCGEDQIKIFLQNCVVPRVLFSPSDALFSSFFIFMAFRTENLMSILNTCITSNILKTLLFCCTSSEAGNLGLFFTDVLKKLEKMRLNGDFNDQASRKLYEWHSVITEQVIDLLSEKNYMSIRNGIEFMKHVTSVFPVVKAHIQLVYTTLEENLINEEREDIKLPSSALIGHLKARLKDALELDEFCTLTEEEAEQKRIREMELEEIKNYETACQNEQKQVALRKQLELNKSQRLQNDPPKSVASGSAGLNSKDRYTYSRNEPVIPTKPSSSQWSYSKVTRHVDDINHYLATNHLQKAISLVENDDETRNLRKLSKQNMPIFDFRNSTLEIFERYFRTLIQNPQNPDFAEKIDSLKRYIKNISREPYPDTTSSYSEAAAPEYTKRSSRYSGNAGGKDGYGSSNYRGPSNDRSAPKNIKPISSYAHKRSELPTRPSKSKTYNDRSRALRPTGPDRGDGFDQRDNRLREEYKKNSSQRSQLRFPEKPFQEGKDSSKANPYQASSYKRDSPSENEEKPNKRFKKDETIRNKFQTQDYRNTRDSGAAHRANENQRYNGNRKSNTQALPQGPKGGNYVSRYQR

The target in assay [1] is TAP-Tho2 (N-terminally TAP-tagged Tho2) (S. cerevisiae) (UniProt P53552). Briefly: tandem affinity purification; TAP-tagged bait purified from yeast lysate; lysate (input) and calmodulin eluate analysed by Coomassie stain and Western blot (anti-HA, anti-Yra1, anti-Sub2).
Assay [2] has as its target Tho2-TAP (C-terminally TAP-tagged Tho2) (S. cerevisiae) (UniProt P53552). The assay is described as above.

B1: Sub2 (protein, UniProt Q07478 1-446)
chain: MSHEGEEDLLEYSDNEQEIQIDASKAAEAGETGAATSATEGDNNNNTAAGDKKGSYVGIHSTGFKDFLLKPELSRAIIDCGFEHPSEVQQHTIPQSIHGTDVLCQAKSGLGKTAVFVLSTLQQLDPVPGEVAVVVICNARELAYQIRNEYLRFSKYMPDVKTAVFYGGTPISKDAELLKNKDTAPHIVVATPGRLKALVREKYIDLSHVKNFVIDECDKVLEELDMRRDVQEIFRATPRDKQVMMFSATLSQEIRPICRRFLQNPLEIFVDDEAKLTLHGLQQYYIKLEEREKNRKLAQLLDDLEFNQVIIFVKSTTRANELTKLLNASNFPAITVHGHMKQEERIARYKAFKDFEKRICVSTDVFGRGIDIERINLAINYDLTNEADQYLHRVGRAGRFGTKGLAISFVSSKEDEEVLAKIQERFDVKIAEFPEEGIDPSTYLNN
Regarding B1, the binding result in assay [1] and in assay [2] was “binds” throughout.

These data come from publication PMC3828145.
